Reference: the supplement of paper PMC12764529
± gives the half width of the 95% confidence interval. For many entries, trypsin and chymotrypsin gave values far apart.

Tests used:
[1] = folding stability dG unfold from trypsin proteolysis; higher = more stable
Procedure, shortened: (§1)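 Bayesian fitting of sequencing counts gave K50 for each design. Unfolding free energy followed by setting this against a sequence-predicted unfolded-state K50 and a shared folded-state K50, either per protease or with trypsin and chymotrypsin combined. The designs, under 80 residues and lacking cysteine, were digested in a PA-tagged cDNA display format at 11 threefold-diluted protease concentrations and without protease, and only those with AlphaFold2 dimer inter-PAE above 15 were kept.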

[2] = folding stability dG unfold from chymotrypsin proteolysis; higher = more stable
Procedure, shortened: as §1

[3] = folding stability dG unfold (combined trypsin and chymotrypsin); higher = more stable
Procedure, shortened: as §1

Sequence	folding stability dG unfold [1] [kcal/mol]	folding stability dG unfold [2] [kcal/mol]	folding stability dG unfold [3] [kcal/mol]
SMIEIEVKNEDGETYRIRITFENGEKKEIEFKGIKSLEEAKKAIEELLKLKKEGKKVKIVKIEIEKVDKPSA [r9_1135_TrROS_Hall]	2.45 ± 0.11	5.22 ± 0.12	4.93 ± 0.19
SAGGRVERLPGPYVRATFFLPEAGTEVEVVFRVPPNGEAEVVAVDVRPVPPLPTDAPAYTGPDGVVVASAGG [r13_646_TrMRF]	0.375 ± 0.078	2.44 ± 0.047	1.79 ± 0.12
SSAEELARRLAAELAERLPPGARITDVRIERRADGTVTITVTVELPDGRTLTVTITLDLATGEITIEIHPSA [r9_219_TrROS_Hall]	4.95 ± 0.16	4.35 ± 0.26	4.89 ± 0.19
SAGGMLVTLALTNEDGTVHTLALYVDEDGNLTVTDSESYPATATFTDADGVPHTAPVTVTKEKVAPDSAGGS [r8_270_TrMRF]	-1.1 ± 0.41	1.32 ± 0.036	0.764 ± 0.16
MYLVRIKIEYKTEDGEKVEKEITLLVEPSEEEAKEKAEELARKIAEELGLSEEEIKKIEVEVVKLGEELEES [r1_159_TrROS_Hall]	4.05 ± 0.22	4.37 ± 0.12	4.29 ± 0.15
SIGGNGLSFMFPVKVTFDMWSMNPNGNMQPVGKMKFEVYVMIRIIPIEDLQKLQKAKEKPPPDPDDKEKQSA [r9_1192_TrROS]	2.17 ± 0.18	4.35 ± 0.084	3.65 ± 0.27
SAGGSAGGEFTVTVTIEKDEEKGFIRIPISVSLPSSAFVPKTVEFLEFAKTLKENLPELEVDASSAGGSAGG [r6_102_TrMRF]	0.609 ± 0.018	0.65 ± 0.075	0.679 ± 0.038
SAGGSAGGSAGMAEKLPSLSLFYLPETGDLVLIREETYVDPNDPDKSIVKQEIYVLPPEYSAGGSAGGSAGG [r17_241_TrMRF]	0.984 ± 0.051	1.74 ± 0.13	1.51 ± 0.096
SAGGTLKYKVTVTLSYPDKDGNLLSTGTYTFEVEVKPPKVIGVPADAEELAKELAEKTDTVVVPTDTGSAGG [r19_315_TrMRF]	1.41 ± 0.12	3.63 ± 0.11	3.13 ± 0.22
SAGGSAIEELAKKLPGAKVEVVEEKEGTVYLKVKLKDGSYLKISITYDKETKEKTIKIEKVPKEELSAGGSA [r15_547_TrROS_Hall]	1.91 ± 0.069	4.377 ± 0.032	4.01 ± 0.14
SAGMEITTVTLPDGTKLITITLPVPGGPSITADVPYDPATGKVTLLKITGEDPALEALAKEAVEKLKKESAG [r5_266_JUSTAS]	0.68 ± 0.032	1.17 ± 0.053	1.09 ± 0.11
KEVKTITVTIEITLPDGSKIKIEKTITFVKEDGYVVVEMKIEVTDKNGKKHTFTVKVVLKLKPGQSLEELLS [r1_226_TrROS_Hall]	2.67 ± 0.26	5.75 ± 0.42	> 6
SAGGSAPVRVVEIDMTPEELEAALAALEAAEPGETVVVRLRLPDGGEVTLRFRRVEDGEWEVELEPSAGGSA [r15_228_TrROS_Hall]	1.96 ± 0.058	4.39 ± 0.056	4 ± 0.11
SAGGSQEEAEELLAREVVAPPVTDPSTGRTYPGTRLRVLDVELDENSESIRVRAETPEGEVELLLESAGGSA [r2_314_JUSTAS]	-0.901 ± 0.82	1.29 ± 0.055	0.895 ± 0.073
LDIEYDPDNGSFTVSFMVPIGPGHGVFVMVDYTFRFGPNGDIGIEWQISVMPIPPPPPKIDPEDQEKAQNKS [r1_4_TrROS]	1.95 ± 0.12	3.99 ± 0.28	3.67 ± 0.47
SAGGEISFNFRWPSLEEAIEFVNEIAQLFPGFDVNVEYNPGNGWFHVTIKPKPVPPPDPEEAEENKKSAGGS [r16_674_TrROS]	1.28 ± 0.099	4.66 ± 0.15	4.34 ± 0.14
SAGGSAGGSADGWVFLVGADVEVEPVPASLLNVPRSVPGEENPYVVKLKEVSFLLVPAKELSAGGSAGGSAG [r3_488_TrMRF]	-0.906 ± 0.39	0.734 ± 0.23	0.185 ± 0.16
SAGGSAGGSKKYKIVSIEYDEETDEITIKIYNSNGELVEEFKFKKGEEIVITLEDGSKIVIKDSAGGSAGGS [r12_441_TrROS_Hall]	2.62 ± 0.087	5.05 ± 0.057	4.88 ± 0.12
SAGGSAMITVKLEGKPVTVEILSREPKGRLVKAQAVVHRPDDGTEKTVSGLLSEEEIEKAIEEALASAGGSA [r15_944_JUSTAS]	-0.917 ± 0.32	0.143 ± 0.11	-0.15 ± 0.12
SAGGRIHIPIPLNQAREILKKLAPDGRDVTAEPQGPSKDNVYYTIEFEPPKNGNEVDIEIWIPPPGDSAGGS [r16_486_TrROS]	-0.000485 ± 0.1	-0.234 ± 0.36	0.0968 ± 0.18
SAGGMEIEIEVFEFENKIVILVKADNPIETIKLIINLIKEKFSAKPYEVKVEELPDGYLLIVFDLKPESAGG [r13_158_TrMRF]	2.58 ± 0.092	5.33 ± 0.17	5.31 ± 0.24

Reprinted from the listing for reference:
Sequence	folding stability dG unfold [1] [kcal/mol]	folding stability dG unfold [2] [kcal/mol]	folding stability dG unfold [3] [kcal/mol]
SMIEIEVKNEDGETYRIRITFENGEKKEIEFKGIKSLEEAKKAIEELLKLKKEGKKVKIVKIEIEKVDKPSA [r9_1135_TrROS_Hall]	2.45 ± 0.11	5.22 ± 0.12	4.93 ± 0.19
SAGGRVERLPGPYVRATFFLPEAGTEVEVVFRVPPNGEAEVVAVDVRPVPPLPTDAPAYTGPDGVVVASAGG [r13_646_TrMRF]	0.375 ± 0.078	2.44 ± 0.047	1.79 ± 0.12
SSAEELARRLAAELAERLPPGARITDVRIERRADGTVTITVTVELPDGRTLTVTITLDLATGEITIEIHPSA [r9_219_TrROS_Hall]	4.95 ± 0.16	4.35 ± 0.26	4.89 ± 0.19

Further records follow.

Sequence	folding stability dG unfold [1] [kcal/mol]	folding stability dG unfold [2] [kcal/mol]	folding stability dG unfold [3] [kcal/mol]
SAGGSAGGSAGGKKKILVLVEVDGKLYLVEAEVEEKDGKLYIKAKVYRIDKKDPGKIEKVSAGGSAGGSAGG [r7_866_TrROS_Hall]	1.78 ± 0.07	4.28 ± 0.17	3.73 ± 0.41
SAGGKKIKVEVKIEIKIEKNPDGSYTIRIKITVKVTNENGEKFEVKVELEITLSEEELEKLKKLLEELSAGG [r13_412_TrROS_Hall]	3.07 ± 0.24	3.75 ± 0.46	3.5 ± 0.39
SMTLITLTDPVTNVPVEKVEVRKLEDGTYEATVTTKEPSKTTTKTYPLPPDEKITDVLKSLGLKEAEINLSA [r9_492_JUSTAS]	0.255 ± 0.036	0.538 ± 0.093	0.445 ± 0.17
SAGGSAGGSAGGMIKTKDGKVLEFKSLEEALAALKELGVDEVEIEELEPEGVVKVKVKPSAGGSAGGSAGGS [r10_1191_TrROS_Hall]	0.301 ± 0.03	1.34 ± 0.039	1.11 ± 0.11
SAGGKIEVKKVEVFEDGTILAPLTNEDGKEDLVLVVDLEPVLDGDKVYYKAPVKLYKDGKLIAEFDIGSAGG [r13_1007_TrMRF]	-0.335 ± 0.21	1.89 ± 0.083	1.37 ± 0.19
SAGGKKVKIKVTIVIKVEPGESVEEIAKKLAEELGLKVEVKVEVVKRKDGSLYVVIEVEIELPEELKPSAGG [r13_590_TrROS_Hall]	2.3 ± 0.16	3.18 ± 0.24	2.85 ± 0.56
SAGGMTLEFTLPDGLRVRVELELRDGTLRLRVEVERDGELLTLELEIRLPPPPPPVVRAPSAEEAERASAGG [r13_691_TrROS_Hall]	1.22 ± 0.1	3.32 ± 0.33	2.84 ± 0.63
SAGKYIMHPIKAGAEIKITIPPEGYRIKIGMYYPNGGKMEEHEVPIKPGKTLEFKIPDPNFFVMIEPEPSAG [r5_797_TrROS]	0.984 ± 0.1	1.57 ± 0.25	1.3 ± 0.26
SAGGSAGGSALDSLVPDIDLRVRVEPVPDDPSILRADVELSDGLVLEVEFLPSGVARVSLSGKGSAGGSAGG [r6_122_TrMRF]	-0.0307 ± 0.084	-0.246 ± 0.11	-0.0927 ± 0.058
SAGGSAGGSDTVTLTILVRDPATNRWYLVEVELRRNPDGSLTARARVYDLDTGEWHEETFTLPSAGGSAGGS [r20_229_TrROS_Hall]	2.9 ± 0.16	5.29 ± 0.079	5.04 ± 0.19
SAGGSAGGSKEKVIEIKIKVKTKEEAKKKAEELAKELEKKGYKIKKVEIKYDKETKEVTVRIESAGGSAGGS [r20_155_TrROS_Hall]	3.9 ± 0.2	4.02 ± 0.097	3.95 ± 0.12
SAGGSAGGSMKTYTLPNGLRVQLVRVDKKTKTITLKVFDKNGELVEEIEIKVDEPVELLVVYPSAGGSAGGS [r12_960_TrROS_Hall]	2.09 ± 0.061	2.69 ± 0.05	2.45 ± 0.15
SAGGSAGGSAGPPPPTVTLTFKLEDGYYVELSYNLDTDEITVKVYNVKTNEKVAEFTFKLSAGGSAGGSAGG [r11_928_TrROS_Hall]	1.04 ± 0.14	4.94 ± 0.16	4.55 ± 0.44
SRIKISIFRPGKIIPEIPIKVDSVEEAVEKVLEYIRKFPPNAPYYIMIEVEHTDPANGQKQEGTVHIPIKSA [r9_245_TrROS]	2.22 ± 0.059	4 ± 0.048	3.39 ± 0.12
SAGGSAGGKKVYEIKGLTPEQIRALVKENKGKVTIYYKDGKKEEKTIKEGDEIAPGETVYIEVESAGGSAGG [r6_303_TrROS_Hall]	0.858 ± 0.11	1.74 ± 0.13	1.56 ± 0.21
SAGGVEEIVEKLPEEAEEVEITSEPHPLPGSTLTKYTIKAKNSATGKTKTYEVTVLYDPEGNVLEVLLSAGG [r13_358_JUSTAS]	1.7 ± 0.061	2.74 ± 0.082	2.22 ± 0.19
SAGGSASMSKTTTETSPDSETTTTTYYPNGTVTTTKTTTVGEGTTTTTTTTKVLFIPGPGVLVPEPSAGGSA [r15_746_JUSTAS]	-0.174 ± 0.045	0.514 ± 0.062	0.259 ± 0.046
SAGGSAGGKRKIEIHIIIPPGMPPEWRKKAIEIAKWFAKTLAQENNREVEIKIEIFVLDGMPPWSAGGSAGG [r6_204_TrROS]	2.82 ± 0.19	3.71 ± 0.076	3.6 ± 0.33
ADFRVTEESPEGVVTQTTTVALPDGTSRTLTYSYSKDASLTSVTVSYTPDSVTTTTTPVTPVPPGSPELAGS [r1_53_JUSTAS]	-0.411 ± 0.17	0.24 ± 0.19	0.0981 ± 0.13
SAGGSAGGSAGGGPNSVRIEFFFLLPNGYIYRHKFEFNPNGNLEIEPEPVPIPKDDLKPSAGGSAGGSAGGS [r10_280_TrROS]	2.12 ± 0.16	4.189 ± 0.038	3.49 ± 0.17
